Laboratory results published in US11891390B1, “3-substituted amino-2-arylpyrrolo[2,3-c]pyridines as CK2 inhibitors” (KING FAISAL UNIVERSITY, priority 2023, dated 2024).

How the values were obtained:
Type in all cases: cell-based
PC3 (prostate) = test: In vitro cytotoxic activity (MTT) assay, PC3; details: Homo sapiens, PC-3; PC3 cells, exposed for 96 hours; read-out: IC50, 50% inhibition of cell proliferation, PC3 (prostate)
Procedure: (§1) Compounds 1-15 were screened for their in vitro cytotoxic activity utilizing a 3-(4,5-dimethyl-thiazol-2-yl)-2,5-diphenyltetrazolium bromide (MTT) assay against selected cancer human cell lines consisting of PC3 (prostate), HCT116 (colon), A375 (melanoma), H1299 (lung), MIAPaCa-2 (pancreas), HL60 (leukemia), MCF7 (breast), MDA-MB-231 (breast) (T. Mosmann, J. Immunol. Meth., 1983, 65, 55-63). The cells were cultured at 37° C. in RMPI1640 medium supplemented with 10% fetal bovine serum, 50 IU/mL penicillin, and 50 μg/mL streptomycin in a 5% CO2 incubator. All cells were sub-cultured 3 times/week by trypsinisation. Viable cells were seeded and allowed to adhere for 12 h before a test drug was added in 96-well plates at an initial density of 1.0×10^5 cells/mL. Tumour cell lines were separately exposed to various concentrations of the tested compounds followed by incubation at a temperature of 37° C. during 96 h inside a medium of fresh RMPI 1640. Cells were subsequently incubated at 37° C. using MTT at 0.5 mg/mL during 4 h. After removal of supernatant, formazan crystals were dissolved in isopropanol and the optical density was measured at 570 nm. CX-4945 was used as a positive control.

HCT116 (colon) = test: In vitro cytotoxic activity (MTT) assay, HCT116; details: Homo sapiens, HCT-116; HCT116 cells, exposed for 96 hours; read-out: IC50, 50% inhibition of cell proliferation, HCT116 (colon)
Procedure: as §1

A375 (melanoma) = test: In vitro cytotoxic activity (MTT) assay, A375; details: Homo sapiens, A-375; A375 cells, exposed for 96 hours; read-out: IC50, 50% inhibition of cell proliferation, A375 (melanoma)
Procedure: as §1

H1299 (lung) = test: In vitro cytotoxic activity (MTT) assay, H1299; details: Homo sapiens, NCI-H1299; H1299 cells, exposed for 96 hours; read-out: IC50, 50% inhibition of cell proliferation, H1299 (lung)
Procedure: as §1

MIAPaCa-2 (pancreas) = test: In vitro cytotoxic activity (MTT) assay, MIAPaCa-2; details: Homo sapiens, MIA PaCa-2; MIAPaCa-2 cells, exposed for 96 hours; read-out: IC50, 50% inhibition of cell proliferation, MIAPaCa-2 (pancreas)
Procedure: as §1

HL60 (leukemia) = test: In vitro cytotoxic activity (MTT) assay, HL60; details: Homo sapiens, HL-60; HL60 cells, exposed for 96 hours; read-out: IC50, 50% inhibition of cell proliferation, HL60 (leukemia)
Procedure: as §1

MCF7 (breast) = test: In vitro cytotoxic activity (MTT) assay, MCF7; details: Homo sapiens; MCF7 cells, exposed for 96 hours; read-out: IC50, 50% inhibition of cell proliferation, MCF7 (breast)
Procedure: as §1

MDA-MB-231 (breast) = test: In vitro cytotoxic activity (MTT) assay, MDA-MB-231; details: Homo sapiens; MDA-MB-231 cells, exposed for 96 hours; read-out: IC50, 50% inhibition of cell proliferation, MDA-MB-231 (breast)
Procedure: as §1

How did the IC50 (PC3 (prostate)) turn out when `O=C(O)c1ccc2c(c1)nc(Nc1cccc(Cl)c1)c1ccncc12` [CX-4945] was run?
The IC50 was 2 µM.

What about the IC50 (HCT116 (colon)) of the same compound?
Its IC50 is 2.3 µM.

And the IC50 (A375 (melanoma))?
The IC50 was 4.1 µM.

And the IC50 (H1299 (lung))?
The IC50 was 2.3 µM.

And the IC50 (MIAPaCa-2 (pancreas))?
The IC50 was 1 µM.

And the IC50 (HL60 (leukemia))?
The IC50 was 3.7 µM.

What about the IC50 (MCF7 (breast)) of the same compound?
The IC50 was 9.1 µM.

And the IC50 (MDA-MB-231 (breast))?
The IC50 was 6.2 µM.
